Experimental data: PubChem BioAssay AID504793 (Drosophila RNAi Screening Center, 2011)
The deposit covers about 23,000 reagents; below is a random part of those with a known target gene and a result. Of all reagents, 62 (0.27%) got an active call. 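Calls come from follow-up tests whose scores are not deposited, so confirmed genes may have low counts here; counts are not normalised per plate.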 The raw values are shown without normalisation. Entries without a mark were called inactive. Names joined by + are all predicted targets of the reagent.

- Test: 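Genes required for cells to halt at G2/M after double-strand DNA breaks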 (primary screen)
- Cells: Drosophila S2R+ cells
- Reagents: long dsRNA against Drosophila genes, about 0.25 µg dsRNA per well
- Duration: 4 days of dsRNA, then 4 hours of drug before read-out
- Conditions: doxorubicin 0.5 µM for 4 hours to cause double-strand breaks, in cells also given a low, harmless dose of dsRNA against nbs to sensitise the assay
- Measurement: 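Per-well count of mitotic cells stained for phospho-histone H3 after doxorubicin exposure, used as mitotic index; counts are raw and not normalised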
- Reading the numbers: mitotic cells: higher = more cells in mitosis, weaker G2 arrest
- Active means: 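Genes are called active only when high mitotic counts were reproduced with independent dsRNAs and mitosis was checked for delay without damage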
- Calls: active = confirmed in follow-up tests; inactive = not confirmed

Against Tsf3 [DRSC06849] the deposit lists mitotic cells, replicate 1 = 7. Silencing of Cyp28d2 [DRSC03299] gave: mitotic cells, replicate 1 = 3. Cyp28d2 [DRSC27571] showed mitotic cells, replicate 1 = 3. With knock-down of CG30280 [DRSC21761], the record shows mitotic cells, replicate 1 = 9. UQCR-14 + CG32576 [DRSC25269] showed mitotic cells, replicate 1 = 3. Knock-down of Polr2G [DRSC16068] resulted in: mitotic cells, replicate 1 = 15.

After knock-down of Ir84a [DRSC12510] the results were mitotic cells, replicate 1 = 4. With knock-down of Ir84a [DRSC27487], the screen gave mitotic cells, replicate 1 = 7. Madm [DRSC12129] gave mitotic cells, replicate 1 = 7. Madm [DRSC25999] showed mitotic cells, replicate 1 = 2. Or59b [DRSC04632] showed mitotic cells, replicate 1 = 6. Axn [DRSC14120] gave mitotic cells, replicate 1 = 17.

Knock-down of Axn [DRSC29423] resulted in: mitotic cells, replicate 1 = 9. BBS5 [DRSC12168] scored mitotic cells, replicate 1 = 6. Depletion of BBS5 [DRSC27540] gave: mitotic cells, replicate 1 = 2.

Sorted by “mitotic cells, replicate 1” (descending): some entries from above.
Or59b [DRSC04632]: mitotic cells, replicate 1 = 6
Madm [DRSC25999]: mitotic cells, replicate 1 = 2
